From paper PMC8717993
These are yes or no findings as the source states them, for the method shown. Binding seen in cells or lysates may run through a third protein. Some results given as binding are weak or reduced against the parent protein; the word gives no strength.

Chains of the proteins cited; added tags and fusions are not shown.
UniProt P35259: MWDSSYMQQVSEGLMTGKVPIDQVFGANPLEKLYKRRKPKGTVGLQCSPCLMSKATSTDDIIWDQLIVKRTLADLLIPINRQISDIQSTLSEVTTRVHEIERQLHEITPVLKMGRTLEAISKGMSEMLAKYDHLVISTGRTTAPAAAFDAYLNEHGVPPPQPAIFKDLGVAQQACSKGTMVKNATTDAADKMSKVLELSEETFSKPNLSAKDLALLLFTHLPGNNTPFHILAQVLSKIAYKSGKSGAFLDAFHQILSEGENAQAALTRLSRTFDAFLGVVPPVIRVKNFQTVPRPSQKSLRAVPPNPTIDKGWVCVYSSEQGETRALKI
UniProt P31352: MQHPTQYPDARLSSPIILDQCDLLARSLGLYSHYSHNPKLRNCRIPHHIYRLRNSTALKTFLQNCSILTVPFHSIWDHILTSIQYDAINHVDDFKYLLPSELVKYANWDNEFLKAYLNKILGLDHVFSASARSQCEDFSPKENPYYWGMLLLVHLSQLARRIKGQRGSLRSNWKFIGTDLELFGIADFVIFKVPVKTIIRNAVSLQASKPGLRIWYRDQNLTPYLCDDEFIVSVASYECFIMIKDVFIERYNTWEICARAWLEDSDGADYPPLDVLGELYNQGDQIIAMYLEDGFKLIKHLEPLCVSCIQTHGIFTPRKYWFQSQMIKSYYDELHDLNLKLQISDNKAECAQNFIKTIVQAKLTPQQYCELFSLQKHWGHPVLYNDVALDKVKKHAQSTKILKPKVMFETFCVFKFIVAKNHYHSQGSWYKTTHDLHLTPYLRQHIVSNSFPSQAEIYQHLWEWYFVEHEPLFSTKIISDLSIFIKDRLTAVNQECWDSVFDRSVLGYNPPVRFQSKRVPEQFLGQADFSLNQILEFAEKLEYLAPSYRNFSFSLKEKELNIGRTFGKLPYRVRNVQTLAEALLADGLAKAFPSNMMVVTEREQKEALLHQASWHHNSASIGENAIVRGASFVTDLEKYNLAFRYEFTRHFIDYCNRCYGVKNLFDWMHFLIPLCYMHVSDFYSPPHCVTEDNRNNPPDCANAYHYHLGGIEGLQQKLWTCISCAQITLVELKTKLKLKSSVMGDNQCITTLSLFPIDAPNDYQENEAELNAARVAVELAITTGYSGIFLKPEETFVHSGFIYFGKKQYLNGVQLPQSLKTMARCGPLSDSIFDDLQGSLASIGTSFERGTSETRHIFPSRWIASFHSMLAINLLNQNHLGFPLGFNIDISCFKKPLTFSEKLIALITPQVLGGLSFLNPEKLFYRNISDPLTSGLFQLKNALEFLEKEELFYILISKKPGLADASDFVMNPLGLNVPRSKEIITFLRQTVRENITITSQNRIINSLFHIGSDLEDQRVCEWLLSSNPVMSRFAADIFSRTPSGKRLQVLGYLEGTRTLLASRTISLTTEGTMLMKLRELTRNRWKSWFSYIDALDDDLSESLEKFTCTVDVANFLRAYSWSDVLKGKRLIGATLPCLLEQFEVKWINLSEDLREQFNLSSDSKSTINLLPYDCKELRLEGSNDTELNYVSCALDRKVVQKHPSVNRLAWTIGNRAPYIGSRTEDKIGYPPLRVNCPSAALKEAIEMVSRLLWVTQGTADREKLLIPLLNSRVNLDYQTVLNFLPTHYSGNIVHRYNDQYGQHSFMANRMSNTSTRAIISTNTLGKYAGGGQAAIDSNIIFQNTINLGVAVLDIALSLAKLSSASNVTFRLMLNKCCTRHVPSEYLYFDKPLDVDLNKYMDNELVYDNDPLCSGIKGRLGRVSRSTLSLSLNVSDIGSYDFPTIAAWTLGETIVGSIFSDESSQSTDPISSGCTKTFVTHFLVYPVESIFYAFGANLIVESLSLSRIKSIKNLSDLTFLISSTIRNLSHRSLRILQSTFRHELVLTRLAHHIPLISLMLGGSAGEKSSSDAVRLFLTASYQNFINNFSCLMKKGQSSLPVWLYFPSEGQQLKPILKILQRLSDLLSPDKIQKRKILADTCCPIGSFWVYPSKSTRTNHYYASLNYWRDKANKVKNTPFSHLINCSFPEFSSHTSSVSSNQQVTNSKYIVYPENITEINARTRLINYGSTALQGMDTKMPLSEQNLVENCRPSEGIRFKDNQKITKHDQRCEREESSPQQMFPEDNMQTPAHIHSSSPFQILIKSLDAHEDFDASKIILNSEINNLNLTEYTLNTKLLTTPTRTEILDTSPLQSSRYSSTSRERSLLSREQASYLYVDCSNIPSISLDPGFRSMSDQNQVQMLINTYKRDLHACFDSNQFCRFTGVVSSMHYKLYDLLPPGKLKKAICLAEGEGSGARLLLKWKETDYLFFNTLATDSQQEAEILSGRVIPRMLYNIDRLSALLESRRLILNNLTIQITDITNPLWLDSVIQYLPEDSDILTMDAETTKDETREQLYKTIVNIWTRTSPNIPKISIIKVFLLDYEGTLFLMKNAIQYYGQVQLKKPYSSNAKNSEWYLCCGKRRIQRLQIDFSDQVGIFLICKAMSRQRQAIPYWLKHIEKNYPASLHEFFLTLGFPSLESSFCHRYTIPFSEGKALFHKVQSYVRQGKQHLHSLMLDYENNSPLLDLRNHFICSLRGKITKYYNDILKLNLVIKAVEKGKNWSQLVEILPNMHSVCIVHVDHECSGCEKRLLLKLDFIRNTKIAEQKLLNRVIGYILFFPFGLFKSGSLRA

Target: Marburg virus (MARV) VP35 (Lake Victoria marburgvirus strain Musoke) (UniProt P35259)
Experiment: pull-down

Q: How did the binding turn out when “Marburg virus (MARV) L protein, wild type (from UniProt P31352 1-2331) (enzyme)” was run?
A: binds
